Tested on: M1 activated macrophages (AMOs) from Raw 254.7 murine macrophages
Experiment: In vitro cytotoxicity study
Assay type: cell-based
Details: TI = EC50 macrophage/MIC B. cereus; EC50 = concentration causing 50% killing of macrophage after 16 h
Description: A potential antimicrobial candidate must selectively kill pathogen cells without harming the host mammalian cells. To test the ability of SLs to effectively discriminate between bacteria and mammalian cells, a cytotoxicity assay was previously reported by our team. […] The therapeutic index (TI) is a parameter commonly used to determine potential drug selectivity. […] Generally, membrane-active agents are not considered for systemic administration directly, because of relatively low selectivity. Thus, designing suitable formulations and selecting suitable dose ranges are important in drug development.

## COC(=O)CCCCCCC/C=C\CCCCCCC(C)OC1OC(CO)C(O)C(O)C1OC1OC(CO)C(O)C(O)C1O (stereo not shown) [SL-methyl ester]
  Therapeutic index (TI): >8
